# According to the supplement of paper PMC4604168 (melanoma cell lines):
# Some of the results follow. Repeats are few or missing, and single values can be far off.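 Cells were imaged in 1,536-well plates, and nuclei stained with an antibody against cleaved PARP were counted against all DNA-stained nuclei to give the apoptosis fraction. Screening doses were chosen to leave most cells alive, and resting and induced cleaved-PARP levels differ strongly between cell lines.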
# How the values were obtained:
# Experiment in all cases: cleaved PARP positive nuclei fraction relative to DMSO control; melanoma cells; higher = more apoptosis
# Details in all cases: library dose: low library concentration; 72 h
# WM115 = test system: WM115
# WM1716 = test system: WM1716
# WM1745 = test system: WM1745
# WM3526 = test system: WM3526
# WM3619 = test system: WM3619
# WM451Lu = test system: WM451Lu
SMILES,cleaved PARP positive nuclei fraction (WM115),cleaved PARP positive nuclei fraction (WM1716),cleaved PARP positive nuclei fraction (WM1745),cleaved PARP positive nuclei fraction (WM3526),cleaved PARP positive nuclei fraction (WM3619),cleaved PARP positive nuclei fraction (WM451Lu)
"Nc1cccc2c1CN(C1CCC(=O)NC1=O)C2=O (configuration not stated) [lenalidomide] + Cc1cc([N+](=O)[O-])ccc1NS(=O)(=O)c1cc(Cl)ccc1Cl [FH535] (first compound 1 µM, partner dose 1 µM)",44.9%,91.7%,110%,70.2%,79.5%,49.6%
"OCc1c[nH]c2ccccc12 [Indole-3-carbinol] + COc1cc(Nc2ncc(F)c(Nc3ccc4c(n3)NC(=O)C(C)(C)O4)n2)cc(OC)c1OC [Tamatinib] (first compound 0.8 µM, partner dose 0.4 µM)",145%,97.5%,131%,107%,98.8%,125%
"CC(=O)c1c(C)c2cnc(Nc3ccc(N4CCNCC4)cn3)nc2n(C2CCCC2)c1=O [palbociclib] + COc1ccc(COc2ccc(Cc3cnc(N)nc3N)cc2OC)cc1 [GW2580] (first compound 0.04 µM, partner dose 1 µM)",70%,92.4%,263%,129%,114%,44.2%
"CC(=O)c1c(C)c2cnc(Nc3ccc(N4CCNCC4)cn3)nc2n(C2CCCC2)c1=O [palbociclib] + N#Cc1c(O)c2c(-c3ccc(-c4ccccc4O)cc3)csc2[nH]c1=O [A769662] (first compound 0.04 µM, partner dose 2 µM)",86.5%,89.9%,120%,120%,133%,121%
"COc1cc(Nc2ncc(F)c(Nc3ccc4c(n3)NC(=O)C(C)(C)O4)n2)cc(OC)c1OC [Tamatinib] + Cc1cc([N+](=O)[O-])ccc1NS(=O)(=O)c1cc(Cl)ccc1Cl [FH535] (first compound 0.4 µM, partner dose 1 µM)",119%,289%,143%,151%,79.7%,179%
"Cc1nc(Nc2ncc(C(=O)Nc3c(C)cccc3Cl)s2)cc(N2CCN(CCO)CC2)n1 [dasatanib] + C=CCn1c(=O)c2cnc(Nc3ccc(N4CCN(C)CC4)cc3)nc2n1-c1cccc(C(C)(C)O)n1 [MK1775] (first compound 0.004 µM, partner dose 0.02 µM)",183%,319%,170%,28%,118%,121%
"C[C@]1(c2nc3c(C(N)=O)cccc3[nH]2)CCCN1 [Veliparib] + CCCCCCCCCCCC1=C(O)C(=O)C=C(O)C1=O [Embelin] (first compound 1.4 µM, partner dose 1.2 µM)",49.3%,75%,127%,58.5%,65.3%,48.7%
"O=C(CCCCCCC(=O)Nc1ccccc1)NO [vorinostat] + Oc1nc(-c2ccc(C(F)(F)F)cc2)nc2c1CSCC2 [XAV939] (first compound 0.08 µM, partner dose 2 µM)",227%,185%,111%,69.3%,107%,55.6%
"C=CCNC1=C2C[C@@H](C)C[C@H](OC)[C@H](O)[C@@H](C)/C=C(\C)[C@H](OC(N)=O)[C@@H](OC)/C=C\C=C(/C)C(=O)NC(=CC1=O)C2=O [Tanespimycin] + C#Cc1cccc(Nc2ncnc3cc(OCCOC)c(OCCOC)cc23)c1 [erlotinib] (first compound 0.002 µM, partner dose 0.8 µM)",92.8%,134%,192%,81.6%,155%,95.1%
"C[C@]1(c2nc3c(C(N)=O)cccc3[nH]2)CCCN1 [Veliparib] + O=S(=O)(c1ccccc1)N(CC(F)(F)F)c1ccc(C(O)(C(F)(F)F)C(F)(F)F)cc1 [T0901317] (first compound 1.4 µM, partner dose 1.4 µM)",219%,117%,134%,79.5%,99.2%,273%
"C#Cc1cccc(Nc2ncnc3cc(OCCOC)c(OCCOC)cc23)c1 [erlotinib] + Cn1cc(/C=C2\C(=O)Nc3cccnc32)c2ccccc21 [GW441756] (first compound 0.8 µM, partner dose 0.4 µM)",138%,166%,134%,68.8%,87.1%,55.7%
"C[C@]1(c2nc3c(C(N)=O)cccc3[nH]2)CCCN1 [Veliparib] + O=C(CCCCCCC(=O)Nc1ccccc1)NO [vorinostat] (first compound 1.4 µM, partner dose 0.08 µM)",76%,142%,91.2%,62.3%,87.3%,39.2%
"O=C(Nc1cccc(Cl)c1)Nc1ncc(CCNc2ncnc3ccsc23)s1 + Cn1cc(/C=C2\C(=O)Nc3cccnc32)c2ccccc21 [GW441756] (first compound 0.0008 µM, partner dose 0.4 µM)",52.9%,74.2%,102%,60.3%,84.5%,106%
"Cc1nc(Nc2ncc(C(=O)Nc3c(C)cccc3Cl)s2)cc(N2CCN(CCO)CC2)n1 [dasatanib] + COCC[n+]1c2c(n(Cc3cnccn3)c1C)C(=O)c1ccccc1C2=O [YM155] (first compound 0.004 µM, partner dose 0.0004 µM)",96.8%,99.4%,146%,66.6%,172%,116%
"COCC[n+]1c2c(n(Cc3cnccn3)c1C)C(=O)c1ccccc1C2=O + OCCn1cc(-c2cnc3nnn(Cc4ccc5ncccc5c4)c3n2)cn1 [PF04217903] (first compound 0.0004 µM, partner dose 1 µM)",52.6%,144%,83.8%,57%,95.8%,205%
"Clc1ccc(Nc2nnc(Cc3ccncc3)c3ccccc23)cc1 [vatalanib] + Cn1cc(/C=C2\C(=O)Nc3cccnc32)c2ccccc21 [GW441756] (first compound 2 µM, partner dose 0.4 µM)",39.6%,110%,114%,61.7%,77.1%,189%
"C[C@]1(c2nc3c(C(N)=O)cccc3[nH]2)CCCN1 [Veliparib] + CC(C)CCN1c2nc(Nc3cc(F)c(O)c(F)c3)ncc2N(C)C(=O)C1C [BID1870] (first compound 1.4 µM, partner dose 0.2 µM)",158%,101%,106%,67.5%,82.9%,121%
"Clc1ccc(Nc2nnc(Cc3ccncc3)c3ccccc23)cc1 [vatalanib] + COc1cc2c(Oc3ccc4[nH]c(C)cc4c3F)ncnc2cc1OCCCN1CCCC1 [cediranib] (first compound 2 µM, partner dose 0.4 µM)",60.5%,169%,115%,173%,122%,104%
"C#Cc1cccc(Nc2ncnc3cc(OCCOC)c(OCCOC)cc23)c1 [erlotinib] + C[C@]1(c2nc3c(C(N)=O)cccc3[nH]2)CCCN1 [Veliparib] (first compound 0.8 µM, partner dose 1.4 µM)",86%,24.2%,111%,59.9%,89%,48.8%
"C#Cc1cccc(Nc2ncnc3cc(OCCOC)c(OCCOC)cc23)c1 [erlotinib] + Cc1ccc(NC(=O)c2cccc(N(C)C)c2)cc1NC(=O)c1ccc(O)cc1 [ZM336372] (first compound 0.8 µM, partner dose 2 µM)",47.8%,16.3%,104%,63.7%,293%,74.1%
"CC(=O)c1c(C)c2cnc(Nc3ccc(N4CCNCC4)cn3)nc2n(C2CCCC2)c1=O [palbociclib] + COc1ccc2c(c1)CCC1C2CCC2(C)C(NCCCCCCN3C(=O)C=CC3=O)CCC12 [U73122] (first compound 0.04 µM, partner dose 0.4 µM)",75.9%,142%,114%,118%,13.2%,106%
"CC1(C)NC(=O)N(c2ccc([N+](=O)[O-])c(C(F)(F)F)c2)C1=O [nilutamide] + CC(C)CCN1c2nc(Nc3cc(F)c(O)c(F)c3)ncc2N(C)C(=O)C1C [BID1870] (first compound 1 µM, partner dose 0.2 µM)",115%,62%,105%,31.3%,71%,117%
"C=CCn1c(=O)c2cnc(Nc3ccc(N4CCN(C)CC4)cc3)nc2n1-c1cccc(C(C)(C)O)n1 + NCC(=O)Nc1ccc(-n2nc(C(F)(F)F)cc2-c2ccc3c(ccc4ccccc43)c2)cc1 [OSU03012] (first compound 0.02 µM, partner dose 1 µM)",103%,197%,108%,257%,148%,137%
"O=C(Nc1cccc(Cl)c1)Nc1ncc(CCNc2ncnc3ccsc23)s1 + O=S(=O)(c1ccccc1)N(CC(F)(F)F)c1ccc(C(O)(C(F)(F)F)C(F)(F)F)cc1 [T0901317] (first compound 0.0008 µM, partner dose 1.4 µM)",160%,60.8%,113%,76.5%,88.8%,145%
"OCCn1cc(-c2cnc3nnn(Cc4ccc5ncccc5c4)c3n2)cn1 + CCN(CC)CCCCNc1ncc2cc(-c3cc(OC)cc(OC)c3)c(NC(=O)NC(C)(C)C)nc2n1 [PD173074] (first compound 1 µM, partner dose 0.1 µM)",63.4%,98.1%,114%,133%,71.2%,110%
"C#Cc1cccc(Nc2ncnc3cc(OCCOC)c(OCCOC)cc23)c1 [erlotinib] + O=C1NC(=O)/C(=C/c2ccc(-c3ccc(F)cc3O)o2)S1 [AS252424] (first compound 0.8 µM, partner dose 1 µM)",46.8%,106%,123%,74.4%,103%,64.9%
"C#Cc1cccc(Nc2ncnc3cc(OCCOC)c(OCCOC)cc23)c1 [erlotinib] + COc1ccc(Cl)c(Nc2nc3ccccc3nc2NS(=O)(=O)c2cccc(NC(=O)C(C)(C)N)c2)c1 [XL147] (first compound 0.8 µM, partner dose 0.8 µM)",120%,39.1%,109%,40%,95.1%,107%

# Two entries from above in a different format.
SMILES	cleaved PARP positive nuclei fraction (WM115)	cleaved PARP positive nuclei fraction (WM1716)	cleaved PARP positive nuclei fraction (WM1745)	cleaved PARP positive nuclei fraction (WM3526)	cleaved PARP positive nuclei fraction (WM3619)	cleaved PARP positive nuclei fraction (WM451Lu)
Nc1cccc2c1CN(C1CCC(=O)NC1=O)C2=O (configuration not stated) [lenalidomide] + Cc1cc([N+](=O)[O-])ccc1NS(=O)(=O)c1cc(Cl)ccc1Cl [FH535] (first compound 1 µM, partner dose 1 µM)	44.9%	91.7%	110%	70.2%	79.5%	49.6%
C[C@]1(c2nc3c(C(N)=O)cccc3[nH]2)CCCN1 [Veliparib] + CC(C)CCN1c2nc(Nc3cc(F)c(O)c(F)c3)ncc2N(C)C(=O)C1C [BID1870] (first compound 1.4 µM, partner dose 0.2 µM)	158%	101%	106%	67.5%	82.9%	121%
